Data as given in patent US12667547B2 (MESHABERASE, LLC, priority 2013, dated 2026).
At least one compound was matched to its structure with a doubt left.

Target: T1, MMP-14 (Homo sapiens, UniProt P50281)
T1 construct: purchased Enzo Life Science, Farmingdale, NY
Test: MMP profiling, IC50 (fluorimetric MMP inhibitor profiling kit)
Format: biochemical
Procedure: After administration of fluorogenic substrate, a velocity of fluorescent increase was measured using excitation/emission=320/405 nm.

CNC(=O)[C@H](Cc1ccccc1)NC(=O)[C@H](CC(C)C)[C@H](CSc1cccs1)C(=O)NO [Batimastat]
IC50: 130 nM
